Test results reported in paper PMC8405615.
No constants are given. Whether binding was seen depends on the method and setting. Binding seen in cells or lysates may run through a third protein. For some of these results: A result given as binding can be weak or reduced; the word gives no strength. Where a sequence is shown, tags or fusion partners need not be part of it.

T1: MYC-CHFR, full-length checkpoint with forkhead and ring finger domains (human) (UniProt Q96EP1)
T1 sequence: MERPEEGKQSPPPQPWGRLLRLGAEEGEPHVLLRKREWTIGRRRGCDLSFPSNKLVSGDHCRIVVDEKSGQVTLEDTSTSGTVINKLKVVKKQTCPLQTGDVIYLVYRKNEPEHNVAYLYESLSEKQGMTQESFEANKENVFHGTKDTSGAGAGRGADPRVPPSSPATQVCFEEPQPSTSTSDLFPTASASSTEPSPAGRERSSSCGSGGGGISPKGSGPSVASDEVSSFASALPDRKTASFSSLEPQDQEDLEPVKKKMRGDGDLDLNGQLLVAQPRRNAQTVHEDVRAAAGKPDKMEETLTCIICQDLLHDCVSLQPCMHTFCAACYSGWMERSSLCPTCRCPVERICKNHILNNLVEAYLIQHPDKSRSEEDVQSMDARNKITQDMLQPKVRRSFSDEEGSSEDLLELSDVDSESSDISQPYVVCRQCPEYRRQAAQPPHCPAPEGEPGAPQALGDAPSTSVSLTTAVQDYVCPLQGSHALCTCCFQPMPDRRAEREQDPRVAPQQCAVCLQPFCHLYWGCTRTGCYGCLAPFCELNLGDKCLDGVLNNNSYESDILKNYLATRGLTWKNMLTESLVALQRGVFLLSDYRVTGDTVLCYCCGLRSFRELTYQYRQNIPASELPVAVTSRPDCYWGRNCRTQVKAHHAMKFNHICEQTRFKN


Columns and labels:
[1] = biological target: T1, MYC-CHFR, full-length checkpoint with forkhead and ring finger domains (human); experiment: co-IP; ZEB1 truncates transfected with wild-type CHFR into HEK293T cells (Fig. S2a); which partner was precipitated is not told
MYC-CHFR∆CRD (human) = MYC-CHFR∆CRD (human) (UniProt Q96EP1); experiment: co-IP; HEK293T co-transfected; lysis in NETN buffer (100 mM NaCl, 1 mM EDTA, 20 mM Tris-HCl pH 8.0, 0.5% Nonidet P-40); MYC-tagged protein precipitated on anti-Myc magnetic beads, 4 °C, 2 h; immunoblot
MYC-CHFR∆FHA (human) = MYC-CHFR∆FHA (human) (UniProt Q96EP1); experiment: as above
MYC-CHFR∆RING (human) = MYC-CHFR∆RING (human) (UniProt Q96EP1); experiment: as above

| Molecule | binding [1] | binding (MYC-CHFR∆CRD (human)) | binding (MYC-CHFR∆FHA (human)) | binding (MYC-CHFR∆RING (human)) |
| --- | --- | --- | --- | --- |
| ZEB1 N-terminal zinc finger domain (NZF) (domain or fragment) | binds |  |  |  |
| SFB-ZEB1, triple-epitope (S-protein, FLAG tag, and streptavidin-binding peptide)-tagged zinc finger E-box-binding homeobox 1 (protein, UniProt P37275 1-1124) MADGPRCKRRKQANPRRNNVTNYNTVVETNSDSDDEDKLHIVEEESVTDAADCEGVPEDDLPTDQTVLPGRSSEREGNAKNCWEDDRKEGQEILGPEAQADEAGCTVKDDECESDAENEQNHDPNVEEFLQQQDTAVIFPEAPEEDQRQGTPEASGHDENGTPDAFSQLLTCPYCDRGYKRFTSLKEHIKYRHEKNEDNFSCSLCSYTFAYRTQLERHMTSHKSGRDQRHVTQSGCNRKFKCTECGKAFKYKHHLKEHLRIHSGEKPYECPNCKKRFSHSGSYSSHISSKKCISLIPVNGRPRTGLKTSQCSSPSLSASPGSPTRPQIRQKIENKPLQEQLSVNQIKTEPVDYEFKPIVVASGINCSTPLQNGVFTGGGPLQATSSPQGMVQAVVLPTVGLVSPISINLSDIQNVLKVAVDGNVIRQVLENNQANLASKEQETINASPIQQGGHSVISAISLPLVDQDGTTKIIINYSLEQPSQLQVVPQNLKKENPVATNSCKSEKLPEDLTVKSEKDKSFEGGVNDSTCLLCDDCPGDINALPELKHYDLKQPTQPPPLPAAEAEKPESSVSSATGDGNLSPSQPPLKNLLSLLKAYYALNAQPSAEELSKIADSVNLPLDVVKKWFEKMQAGQISVQSSEPSSPEPGKVNIPAKNNDQPQSANANEPQDSTVNLQSPLKMTNSPVLPVGSTTNGSRSSTPSPSPLNLSSSRNTQGYLYTAEGAQEEPQVEPLDLSLPKQQGELLERSTITSVYQNSVYSVQEEPLNLSCAKKEPQKDSCVTDSEPVVNVIPPSANPINIAIPTVTAQLPTIVAIADQNSVPCLRALAANKQTILIPQVAYTYSTTVSPAVQEPPLKVIQPNGNQDERQDTSSEGVSNVEDQNDSDSTPPKKKMRKTENGMYACDLCDKIFQKSSSLLRHKYEHTGKRPHECGICKKAFKHKHHLIEHMRLHSGEKPYQCDKCGKRFSHSGSYSQHMNHRYSYCKREAEERDSTEQEEAGPEILSNEHVGARASPSQGDSDERESLTREEDEDSEKEEEEEDKEMEELQEEKECEKPQGDEEEEEEEEEVEEEEVEEAENEGEEAKTEGLMKDDRAESQASSLGQKVGESSEQVSEEKTNEA |  | no binding | no binding | binds |
